These are yes or no findings as the source states them, for the method shown. Binding seen in cells or lysates may run through a third protein. Some results given as binding are weak or reduced against the parent protein; the word gives no strength.
Molecular target: CAAT enhancer-binding protein alpha (C/EBPα) (human (endogenous in Huh7)) (UniProt P49715)
Test: co-IP; whole cell extracts of Huh7 cells transfected with wild-type or H1390A Jmjd3, immunoprecipitated with anti-C/EBPα, Western blot; lysis buffer 50 mM Tris-HCl pH 7.4, 350 mM NaCl, 30 mM MgCl2, 10 mM EDTA, 0.5% NP-40, 20% glycerol

By UniProt entry, the sequences of proteins in these tests, tags left out. Where a name states a change or a piece, a line headed by the entry shows the natural chain unless it says otherwise.
UniProt P49715: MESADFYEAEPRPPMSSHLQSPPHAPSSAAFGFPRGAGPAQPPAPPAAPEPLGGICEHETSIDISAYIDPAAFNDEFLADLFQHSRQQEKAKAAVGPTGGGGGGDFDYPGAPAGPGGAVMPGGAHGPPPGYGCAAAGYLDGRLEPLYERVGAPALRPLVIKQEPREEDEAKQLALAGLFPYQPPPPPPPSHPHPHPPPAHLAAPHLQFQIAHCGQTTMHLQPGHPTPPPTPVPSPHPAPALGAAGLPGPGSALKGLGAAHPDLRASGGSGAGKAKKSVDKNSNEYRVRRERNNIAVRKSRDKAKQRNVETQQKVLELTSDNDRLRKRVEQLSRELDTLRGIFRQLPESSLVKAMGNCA
UniProt P51532: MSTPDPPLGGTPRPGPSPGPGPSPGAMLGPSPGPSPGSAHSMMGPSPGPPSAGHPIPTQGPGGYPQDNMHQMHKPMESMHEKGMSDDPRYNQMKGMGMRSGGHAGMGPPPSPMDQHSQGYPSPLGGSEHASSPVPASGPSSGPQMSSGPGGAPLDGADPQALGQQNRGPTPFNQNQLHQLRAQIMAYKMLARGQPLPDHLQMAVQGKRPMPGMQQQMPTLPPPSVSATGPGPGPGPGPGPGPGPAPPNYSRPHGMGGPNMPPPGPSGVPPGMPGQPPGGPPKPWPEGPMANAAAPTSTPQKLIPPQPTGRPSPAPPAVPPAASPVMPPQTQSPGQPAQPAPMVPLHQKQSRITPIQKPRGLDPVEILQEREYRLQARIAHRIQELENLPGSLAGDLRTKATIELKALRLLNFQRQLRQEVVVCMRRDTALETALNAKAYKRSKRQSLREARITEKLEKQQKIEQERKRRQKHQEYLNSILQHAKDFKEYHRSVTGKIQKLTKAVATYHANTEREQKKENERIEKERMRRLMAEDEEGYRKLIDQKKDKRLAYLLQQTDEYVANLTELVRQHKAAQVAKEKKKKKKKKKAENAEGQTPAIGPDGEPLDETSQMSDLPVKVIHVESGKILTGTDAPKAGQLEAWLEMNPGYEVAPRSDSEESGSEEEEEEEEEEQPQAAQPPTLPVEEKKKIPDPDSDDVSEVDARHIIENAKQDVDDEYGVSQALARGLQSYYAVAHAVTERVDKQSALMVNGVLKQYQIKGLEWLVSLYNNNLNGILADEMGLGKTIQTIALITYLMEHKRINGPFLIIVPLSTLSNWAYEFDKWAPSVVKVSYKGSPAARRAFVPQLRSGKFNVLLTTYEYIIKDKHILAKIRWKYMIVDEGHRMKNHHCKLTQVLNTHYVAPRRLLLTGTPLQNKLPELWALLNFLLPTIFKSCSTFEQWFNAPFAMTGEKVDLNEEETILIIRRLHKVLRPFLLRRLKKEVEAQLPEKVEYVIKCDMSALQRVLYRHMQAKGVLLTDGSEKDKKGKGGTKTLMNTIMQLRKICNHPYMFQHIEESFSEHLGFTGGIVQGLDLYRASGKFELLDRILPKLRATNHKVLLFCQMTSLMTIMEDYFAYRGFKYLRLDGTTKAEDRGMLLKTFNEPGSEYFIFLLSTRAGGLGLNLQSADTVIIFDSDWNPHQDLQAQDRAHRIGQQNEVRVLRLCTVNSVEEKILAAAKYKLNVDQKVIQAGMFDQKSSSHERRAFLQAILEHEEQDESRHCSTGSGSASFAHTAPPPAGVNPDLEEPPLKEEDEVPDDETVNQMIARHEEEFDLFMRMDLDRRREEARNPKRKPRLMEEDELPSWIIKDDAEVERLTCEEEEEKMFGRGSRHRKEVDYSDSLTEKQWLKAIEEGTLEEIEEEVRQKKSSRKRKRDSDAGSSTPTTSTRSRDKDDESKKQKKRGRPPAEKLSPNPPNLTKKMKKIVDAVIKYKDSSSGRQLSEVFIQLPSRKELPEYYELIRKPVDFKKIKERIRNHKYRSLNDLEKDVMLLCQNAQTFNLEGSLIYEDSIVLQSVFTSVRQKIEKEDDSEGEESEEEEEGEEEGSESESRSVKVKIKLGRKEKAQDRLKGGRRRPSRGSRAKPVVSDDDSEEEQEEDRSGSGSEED
UniProt P51531: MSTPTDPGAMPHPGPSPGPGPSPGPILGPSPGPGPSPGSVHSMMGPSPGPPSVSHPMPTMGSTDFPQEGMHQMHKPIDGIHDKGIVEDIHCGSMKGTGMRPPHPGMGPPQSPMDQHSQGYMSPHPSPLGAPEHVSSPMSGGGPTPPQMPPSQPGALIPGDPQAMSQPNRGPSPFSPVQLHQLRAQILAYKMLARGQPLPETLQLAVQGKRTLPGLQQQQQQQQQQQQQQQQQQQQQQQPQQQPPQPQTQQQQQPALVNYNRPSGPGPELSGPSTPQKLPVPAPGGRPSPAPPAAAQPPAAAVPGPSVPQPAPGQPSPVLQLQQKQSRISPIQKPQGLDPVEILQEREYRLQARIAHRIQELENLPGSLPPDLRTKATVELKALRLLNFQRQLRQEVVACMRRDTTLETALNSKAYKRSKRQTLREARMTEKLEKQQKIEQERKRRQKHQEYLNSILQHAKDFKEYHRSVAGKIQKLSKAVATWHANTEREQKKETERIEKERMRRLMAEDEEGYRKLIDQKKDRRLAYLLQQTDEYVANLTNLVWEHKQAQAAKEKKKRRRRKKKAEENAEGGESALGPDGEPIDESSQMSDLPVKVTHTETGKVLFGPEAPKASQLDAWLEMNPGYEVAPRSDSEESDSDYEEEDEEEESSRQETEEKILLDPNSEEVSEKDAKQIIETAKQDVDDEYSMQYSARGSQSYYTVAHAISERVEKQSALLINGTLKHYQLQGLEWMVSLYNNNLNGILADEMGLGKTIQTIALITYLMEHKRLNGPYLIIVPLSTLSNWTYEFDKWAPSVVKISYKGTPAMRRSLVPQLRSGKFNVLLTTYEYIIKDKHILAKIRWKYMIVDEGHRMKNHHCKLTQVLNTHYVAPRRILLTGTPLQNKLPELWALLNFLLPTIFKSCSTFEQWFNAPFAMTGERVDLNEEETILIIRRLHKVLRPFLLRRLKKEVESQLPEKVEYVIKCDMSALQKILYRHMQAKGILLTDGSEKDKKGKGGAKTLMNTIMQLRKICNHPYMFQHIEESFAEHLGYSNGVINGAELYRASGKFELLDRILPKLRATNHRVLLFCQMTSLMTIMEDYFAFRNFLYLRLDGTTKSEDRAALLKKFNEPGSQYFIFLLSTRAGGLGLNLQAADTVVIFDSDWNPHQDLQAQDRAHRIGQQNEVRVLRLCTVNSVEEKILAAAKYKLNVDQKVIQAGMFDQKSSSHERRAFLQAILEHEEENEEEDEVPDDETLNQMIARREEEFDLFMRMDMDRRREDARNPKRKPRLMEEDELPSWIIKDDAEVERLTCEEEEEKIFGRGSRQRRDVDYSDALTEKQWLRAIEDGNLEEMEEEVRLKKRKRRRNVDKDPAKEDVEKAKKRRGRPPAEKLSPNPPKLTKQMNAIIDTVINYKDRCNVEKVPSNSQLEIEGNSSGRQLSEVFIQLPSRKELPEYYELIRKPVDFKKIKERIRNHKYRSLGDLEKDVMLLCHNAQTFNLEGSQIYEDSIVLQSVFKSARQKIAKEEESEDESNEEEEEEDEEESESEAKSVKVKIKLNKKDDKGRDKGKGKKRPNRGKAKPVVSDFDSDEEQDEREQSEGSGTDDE
UniProt O15054: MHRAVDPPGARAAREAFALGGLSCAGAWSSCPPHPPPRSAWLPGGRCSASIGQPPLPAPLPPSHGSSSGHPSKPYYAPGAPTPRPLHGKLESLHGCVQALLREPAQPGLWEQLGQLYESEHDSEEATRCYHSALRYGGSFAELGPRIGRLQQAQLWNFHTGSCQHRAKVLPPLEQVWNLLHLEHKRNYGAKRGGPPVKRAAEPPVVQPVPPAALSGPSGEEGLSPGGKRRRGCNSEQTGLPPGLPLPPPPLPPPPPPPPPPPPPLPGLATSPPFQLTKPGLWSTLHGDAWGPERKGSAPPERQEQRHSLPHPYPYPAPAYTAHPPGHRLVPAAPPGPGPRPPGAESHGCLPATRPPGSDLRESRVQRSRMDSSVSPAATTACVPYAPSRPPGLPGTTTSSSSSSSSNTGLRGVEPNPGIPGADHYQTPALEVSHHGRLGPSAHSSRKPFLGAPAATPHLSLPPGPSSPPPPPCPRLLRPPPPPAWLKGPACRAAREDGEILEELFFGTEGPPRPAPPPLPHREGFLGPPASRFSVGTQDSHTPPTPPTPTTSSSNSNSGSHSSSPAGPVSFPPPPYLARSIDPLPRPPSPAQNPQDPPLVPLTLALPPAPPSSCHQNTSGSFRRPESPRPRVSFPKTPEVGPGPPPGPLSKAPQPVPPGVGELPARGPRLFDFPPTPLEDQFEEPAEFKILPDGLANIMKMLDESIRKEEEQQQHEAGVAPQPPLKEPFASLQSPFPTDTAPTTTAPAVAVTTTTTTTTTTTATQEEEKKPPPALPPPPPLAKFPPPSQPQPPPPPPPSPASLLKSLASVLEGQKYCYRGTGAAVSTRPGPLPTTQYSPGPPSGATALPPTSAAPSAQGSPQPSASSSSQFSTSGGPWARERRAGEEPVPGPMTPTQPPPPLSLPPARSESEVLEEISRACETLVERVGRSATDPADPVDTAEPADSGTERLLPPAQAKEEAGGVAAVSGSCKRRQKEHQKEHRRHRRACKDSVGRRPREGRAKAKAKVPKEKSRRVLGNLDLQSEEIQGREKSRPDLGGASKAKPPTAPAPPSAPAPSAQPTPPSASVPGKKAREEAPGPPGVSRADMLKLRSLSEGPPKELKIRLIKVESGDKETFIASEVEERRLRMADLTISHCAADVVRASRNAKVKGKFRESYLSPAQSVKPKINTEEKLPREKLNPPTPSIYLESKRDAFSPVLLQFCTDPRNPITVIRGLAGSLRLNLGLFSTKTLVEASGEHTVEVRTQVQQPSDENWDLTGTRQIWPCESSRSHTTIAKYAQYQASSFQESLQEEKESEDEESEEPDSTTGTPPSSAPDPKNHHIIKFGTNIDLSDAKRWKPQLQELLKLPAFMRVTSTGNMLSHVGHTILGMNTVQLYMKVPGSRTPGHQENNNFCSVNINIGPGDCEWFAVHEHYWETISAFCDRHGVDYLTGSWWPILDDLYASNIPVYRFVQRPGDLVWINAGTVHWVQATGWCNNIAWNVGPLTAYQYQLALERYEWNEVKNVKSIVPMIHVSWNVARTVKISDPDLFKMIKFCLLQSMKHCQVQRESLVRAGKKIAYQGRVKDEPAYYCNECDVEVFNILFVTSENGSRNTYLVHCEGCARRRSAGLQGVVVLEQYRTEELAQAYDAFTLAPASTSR

binding | Substance
no binding | Brg1, ATPase subunit of the SWI/SNF chromatin remodeling complex (from UniProt P51532 1-1647)
binds | Brm, ATPase subunit of the SWI/SNF chromatin remodeling complex (from UniProt P51531 1-1590)
binds | Jmjd3 H1390A demethylase defective mutant (from UniProt O15054 1-1643)
binds | Jumonji domain containing 3 (Jmjd3), wild type (from UniProt O15054 1-1643)
